Out of some 53,000 sequences screened, about 3,700 (7%) were called active.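 Rule for the calls: active = gene knockdowns whose robust z-score for IL-1 alpha signal is at least 2 or at most -2, so actives lie on both sides; inactive = the rest.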 Some of the results follow.

The nature of this test: Components of the Cytosolic LPS Sensing Pathway: Gene Identification via Genome-wide siRNA Screen.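 Note: robust z of the log signal after scaling to non-targeting control siRNA wells of the plate.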 As to conditions: RAW264.7 macrophages, IL-1a HTRF, actives lie on both sides, screened at 100 nM (by protocol), cells primed 5 h with Pam3CSK4 first. The method in brief: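 RAW264.7; siRNA 100 nM final, RNAiMAX, 48h 37 degrees C; Pam3CSK4 5 h; LipidA + TransIT-TKO 24 h; IL-1a HTRF; CellTiter-Glo viability; robust z vs negative-control median.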
Take GGCAAUAACUGCUUUAUCUTT against Olfr509: the z-score was inactive: -0.68.

Take GGGAAUGGAAACGGCCAUGTT against Nmt1: the z-score is active: 2.02.

CCAAGUGCUAAACAAGACATT against Spata31: the z-score is inactive: 1.06. With CCUAACUUACCUUCAUCUATT against Fbxo7 the figure was inactive: -0.29; with GGAUGUGGCCAUGGACUUUTT against Zfp286, inactive: -1; with GGCAAAAUGACACGGACACTT against Cd300lb, inactive: 0.616. With CCAAGAUGCGAGUGGAGAGTT against Rgs9 the figure was inactive: 0.325. With GCAGAAGUCGAGCUAUGUUTT against Zfp365 the figure was inactive: -1.21. As for GCCUGAACUUCUUAGCAUGTT against Uchl3, the z-score is inactive: 0.737. With GGUGAAGAUCUGAUAAGAATT against Epb41 the figure was inactive: -1.44. With GCAGUGUCCCUAAAUGUUCTT against Adra1d the figure was inactive: -0.734. With GGGAUAACCAGUGAAUUUATT against Pcdhb15 the figure was active: 2.23; with GGCCAUCAAACAGACCUACTT against Lrp5, inactive: -1.12. As for GGACUCACCCAUUCUUAUUTT against Mapre3, the z-score is inactive: 0.0804. Regarding GGACUUUGUAGACAACGUGTT against Ap4b1, the z-score is inactive: -1.25. With CGAGUGUGAGCUACAGCGUTT against Agrn the figure was active: 2.74.

For the sequence GUGGUAAACAGAAUGGUGATT against Ccdc92b, the z-score is inactive: -1. With CCAAUAAAAGUUGAGAGCUTT against Krt18 the figure was inactive: -0.272; with GGAGAGUGAGAUCAUCUUUTT against Pde6a, inactive: -1.4; with GGACUUGUUCCUGAAGACATT against Ubfd1, inactive: 0.312. With GGGUAUCAAUCUUAGGUUATT against Map6d1 the figure was inactive: 1.05; with GGCAGCUCACAUGAGCUUUTT against Hoxa4, inactive: 0.879; with CGAAGUCGUGGCAAUGAUUTT against Nfu1, inactive: 1.39.

GGGCAACCCAAAGAUGCCATT against Pla2g2d: the z-score is inactive: -0.835. With UGGAUAUUGGCUGAUGAGCTT against Bckdhb the figure was inactive: -0.177. With GCUCUGGUUGCCAGUUAUGTT against Ddx49 the figure was inactive: 0.903; with GCAAAUGCAUGACUUCUAUTT against Pcgf6, inactive: 1.81; with GGAAAACUUGAAGACAGAUTT against Scaper, inactive: 0.374. With GCAACUUGGAAUGUUAUCUTT against Adh4 the figure was inactive: -0.471; with CGUGGUUCAGUUUCAUCAATT against Cox7a2, inactive: 1.52. In the case of GGACAUGCAAAGAUACCGGTT against Ogfr, the z-score was inactive: 0.184. With CGUCUACCCGGAAUUUCAGTT against Sdha the figure was inactive: -1.42. With CCUGGUGGAUUGUUGGUGUTT against Guca1b the figure was inactive: -0.254; with GGUUCUGAUUUCAUUUGAUTT against Pkia, inactive: -0.774. With GGAGUCCUGUAAAUGCAAUTT against Kat2b the figure was inactive: 0.0824; with GCAAGAAAUGGACAAUUACTT against Gkap1, inactive: 0.478; with CCAACAGUAGAUAAAAAGCTT against Sesn1, inactive: -0.0778. In the case of GGCCCAAACACGUGUAAAATT against Kdm5b, the z-score is inactive: 0.322. With GGCUUUACAUUUUCAUUGUTT against Olfr993 the figure was inactive: -0.219; with GGAAAAUUGCAUGAGGGUUTT against Col6a6, inactive: 1.35. Take GCUGAGAGUAUCCUUAUUCTT against Fhdc1: the z-score is inactive: 0.374. With GCAUCACUGGAAAUCUUACTT against Olfr807 the figure was active: -2.31; with GGUUGUGCCAGAGGAGAUUTT against Scrib, inactive: 0.963; with CCUACUGAUGUACACUGGATT against Fgf20, inactive: 0.728. For GCGAUCUAGAAAUUGACAATT against St13, the z-score is inactive: -0.59. With CAAAGGAUGGCUGGUCAGATT against Sctr the figure was inactive: 0.0193; with GCAGGAUGCAGCGAUAGUUTT against Slc2a6, inactive: -0.952.

For GGAAUUAAGUCAUCAGGAATT against Slc6a5, the z-score was inactive: -0.763.

On to GCGGGAGCUUAGCUUUUAUTT against G6pc3, for which the z-score is active: 3.33.

Take GGGCAACUACCUCUUUCGATT against Lrrc20: the z-score is inactive: 0.516. With UAAUGGCUGCUGUCUCCUGTT against Olfr441 the figure was inactive: 0.405; with CCAAUCUUAGUCAUCCAUUTT against Foxo6, active: -2.27. With GGAAGCUAUGAACAAUACATT against Sulf2 the figure was inactive: 0.00856.

Consider CGAUAAAAAUGAAUGGGACTT against Cyp17a1, for which the z-score is inactive: 0.959. With GCAACAGCUUUAGAGUGACTT against B3gnt4 the figure was inactive: 0.517. With GGAUACAUUAAGGUGCAAGTT against Aldh1a7 the figure was inactive: 0.819; with GGUUCAGUUUUGGCUGGCUTT against Olfr558, active: 2.04. Turning to GGUGGACUCUGUUUAAAAATT against Mtnr1a, the z-score was inactive: 0.971. With GCAACUUCUAAAGGUCCUATT against Oaf the figure was inactive: -0.561. With GCUUCAACAGUAAUAAUCGTT against Adamtsl1 the figure was active: 2.75; with GAACUGAAGAAGCAGAUUGTT against Isg15, inactive: 0.601. With GGGCUAUGUUCGAAGUAAATT against Kbtbd3 the figure was inactive: -0.848; with GUAAUCACCUUAAAGAUGUTT against Cebpb, inactive: 1.32. On to GCCCUAAUUAGCUUUUUGUTT against Gpr68, for which the z-score was inactive: 0.719.

Take GGGUCAUCCAAUAUUUUGCTT against Myh7: the z-score was inactive: -0.807. With GGGCAAGAAACCUCUUAACTT against Synpo2 the figure was inactive: 1.57.

For GGAAAUGAGACGAAGGAGGTT against Kpna6, the z-score was inactive: -0.642. With CCCAGAUACGCUAUUCGGUTT against Pcdhga12 the figure was inactive: -0.566. With GCGCGAUAGAUUUUGUUUATT against Ier5l the figure was inactive: -0.427.

The values above are taken from PubChem BioAssay AID1508600 (Functional Genomics Laboratory (NCATS/FGL), 2020).
